Results are given in words; binding and its absence hold for the method and conditions named. In cells and extracts the contact can be indirect. A yes stands for co-enrichment or nearness to the bait. Other partners may have been found. For some of these results: No binding means not detected with the bait. Each block holds one molecule with its values, some of them ahead of it.
How the values were obtained:
[1] = biological target: FLAG-tagged Tau-RD-ΔK280 (human Tau Repeat Domain, Q244-E372) (human) (UniProt P10636); assay: affinity purification with mass spectrometry; Tau-RD* monomers (37 µM) on anti-FLAG beads, incubated with rat brain extract 1 h at 4 °C; compared with empty FLAG beads; only the target purified
[2] = biological target: FLAG-tagged Tau-RD-ΔK280 (human Tau Repeat Domain, Q244-E372) (human) (UniProt P10636); assay: affinity purification with mass spectrometry; Tau-RD* late-stage aggregates and fibrils (selected at t4, followed to t24) on anti-FLAG beads, incubated with rat brain extract 1 h at 4 °C; compared with monomeric Tau-RD* without heparin (t0−); only the target purified

binding [1]: binds
binding [2]: no binding (only Tau-RD* as fibrils)
Molecule: CTBP1 (from UniProt Q9Z2F5 1-430)

binding [1]: binds
binding [2]: no binding (only Tau-RD* as fibrils)
B1: FBXO3 (protein, UniProt D4ABP9 1-480)
chain: MAAVEAETGLLTLESLPTDPLLLILSFVDYRDLINCCYVSRRLSQLSTHDPLWRRHCKKYWLITEEEKARKNQCWKSLFIATYSDVGRYINHYAAIKKAWDDLKKYLEPRCPRMVLSLKEGAREEDLDAVEAQIGCKLPDDYRCSYRIHNGQKLVVPGLLGSMALSNHYRSEDLLDVDTAAGGFQQRQGLKYCLPLTFCIHTGLSQYIAVEAAEGRNKNEVFYQCPDQMARNPAAIDMFIIGATFTDWFTSYVNNVVSGGFPIIRDQIFRYIHDPECVATTGDITVSVSTSFLPELSSVHPPHYFFTYRIRIEMSRDALPEKACQLDSRYWRITNAKGDVEEVQGPGVVGEFPIISPGRIYEYTSCTTFSTTSGYMEGYYTFHFLYFKDKVFNVAIPRFHMACPTFRVSIARLEMGPDEYEEMEEEAEEEEEEENDDSADMDESDESDEDENESDEGEGEERRRRVFDVPIRRRRCSRLF
